In PubChem BioAssay AID1347423 (Functional Genomics Laboratory (NCATS/FGL), 2020) one finds z-score data, which are given here for 104 sequences.

Screen size: about 52,000 sequences; about 210 (0.4%) were called active.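 How the source made its calls: active means gene whose silencing raises cell survival under the drug, median off-target-corrected z-score across its silencing RNAs 2 or more; inactive means the rest.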 Some of the results follow.

The nature of the assay: Resistance to Poly (ADP-Ribose) Polymerase inhibitor: Gene Identification via Genome-wide siRNA Screen. The conditions noted are these: mouse BRCA2 R2336H ES cells, olaparib, CellTiter-Glo viability; hits give high values. Put shortly:
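Genome-wide siRNA screen (3 siRNAs/gene, 20 nM) in mouse ES cells carrying hypomorphic BRCA2 R2336H; olaparib 500 nM added 48 h post-transfection, CellTiter-Glo viability 72 h later. Normalized to plate-median negative control; MAD z-scores, gene median, seed-adjusted.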
Background: Cellular ATP, detected with luciferase, serves as a proxy for viable cell number.
On to GCGGCAUAAUGGAUAUGACTT against Ckmt1, for which the z-score was inactive: 0.669.
With GCAUCUAUGAUGCAUUUGUTT against Tlr4, the z-score is inactive: 0.771.
Under “GGCACUAAAAGAAGAGAUCTT against 1810056O20Rik” stands inactive: -0.585; under GGUUUAUAUUCUUUGUGGATT against Kcnj1, inactive: 2.42.
Take GGUCACUGAAUUGUCAAUCTT against Polr3h: the z-score is inactive: -0.193.
The figure for GGUCAAUGCCUUUGAGUUUTT against Cdc42ep1 is inactive: 1.29; for GGAUAGGACAGAGAUAAAATT against Wnt2b it is inactive: -0.391.
Under CGUGUUUGCAUAAUGUUUATT against Arih1 stands inactive: -0.585; under GCAGCCUAUGGAAGAUCACTT against Tle4, inactive: 0.338.
Under GCCUCAUGAAUGACCACACTT against Klk21 stands inactive: 0.685; under GGACUCGUAGCGAUAAUGATT against Tmem20, inactive: 0.387; under GGGUACGAUCGUGUGUUGUTT against Rpl8, inactive: -3.13.
For “CCUGACGAUCAAAUCACUGTT against 1110012M11Rik”, the z-score is inactive: 0.345.
Under GCUGAUUUCUCAAACAUGATT against Serpinb10 stands inactive: -0.311.
Under “GGUCAACAGAAUUGAUUCUTT against D730039F16Rik” stands inactive: -0.138; under GCAUGAAGUUGCACAUCCCTT against Cox8b, inactive: -0.0409.
Under GGACCAUCCAUUGUGAUCUTT against Slc7a3 stands inactive: -0.768.
GGGCCUUAAUUUUCCUUUUTT against Podxl: the z-score was inactive: -0.404.
Under CGGCAGAAGGGUUUUUAUGTT against Rnf126 stands inactive: 1.26; under “CCUUGCACUCAGUCCAUGATT against 2010003O18Rik”, inactive: -0.296.
For GGGAUCAACAUUUACCGAATT against Ablim1, the z-score was inactive: 0.3.
The figure for GGAACCAGUCGACUACUAUTT against Sstr1 is inactive: 0.325; for CCCGGAGUACAGUGACUUUTT against Prss11 it is inactive: 0.147.
The figure for “GGCAAACCUGCAAACAUCUTT against 1700049K14Rik” is inactive: 0.774; for GGCUGUGAACAAAUUUGUATT against Egfl3 it is inactive: -0.748.
The figure for GGUCUCAGAAGACCUAGAUTT against Mylpf is inactive: -1.08.
As to GGUUCUCUGUGUGAUAGCCTT against Ms4a10, the z-score was inactive: 0.41.
Under GGUCGUGGUGAAAACUAAGTT against Nsg1 stands inactive: -0.136.
Consider “CCCGAGAUGAGGAACUUUUTT against A930038C07Rik”, for which the z-score was inactive: -1.45.
Under GGUAGUACCACUAACCAAATT against Nrl stands inactive: -0.818; under GCACUUGCCAGGUACUAUGTT against Cnga1, inactive: -1.25; under GGACUCAAGGAACCAAAAUTT against Rps3a, inactive: -2.99.
Consider CGAUUAUGACCGAUAUAGATT against Fusip1, for which the z-score is inactive: 0.823.
In the case of GGUUUUCCUGUUCAAUUCUTT against Olfr586, the z-score was inactive: 0.331.
Take GGAAGAACUGAUUGAAGAGTT against Sptlc1: the z-score was inactive: 0.939.
The figure for CCCGACGUAGGAUCUUUGATT against Ncdn is inactive: 0.548; for GCUGAUGGACAAAUUCCACTT against Rapgef1 it is inactive: 0.411; for “GGCUUGACCUGCGUCUUCATT against 1700001P01Rik” it is inactive: 0.0714.
For the sequence GGAUCAGAGAAGGAAAAAATT against Hspa12a, the z-score was inactive: -0.819.
Under GGUGACAAGAGGUUUUGCUTT against Idh3a stands inactive: 0.495; under GGAUCAUCAAAGACGACAUTT against Prss34, inactive: -0.807.
Under GGUUGAGUUCCGAUCCCAUTT against Gip stands inactive: 0.94; under GGACCAGGUGAUGAAGAGGTT against Fzd4, inactive: 0.842.
Under GGGUCGGUCUAUUAGGGAUTT against Rhbdf1 stands inactive: -1.14.
GGGAACAACACAUAAUGGATT against BC002059: the z-score was inactive: -0.0122.
Consider GCUUAAAGAUCGAUCCCGCTT against Slc38a4, for which the z-score is inactive: 0.666.
Under GACUUUCAAUACUGUGAUUTT against H2-M10.2 stands inactive: 0.331; under CGUGUACAAGACCAACAACTT against Scg2, inactive: 1.74; under GGAAAGACAUGAUACUGUCTT against Nr1i3, inactive: 1.4.
Consider GCUCCAACUACAUUGACUATT against Olfr1410, for which the z-score is inactive: -1.89.
The figure for GCCGCCAUGACAGUAAAAGTT against Sfrs4 is inactive: -0.52.
For the sequence GGAUGUCUAGUUAUACAUUTT against Mbd3l1, the z-score is inactive: -0.00607.
Under GGAAGUGAGUCAGAGCUCATT against Cdc42ep3 stands inactive: -0.165.
Turning to CCGCCGAUCUACUAGUGGUTT against Slc6a2, the z-score was inactive: -0.394.
With GGUUGUGUGUCUGUUUGGUTT against Olfr1012, the z-score was inactive: -0.473.
The figure for “CGUAUGACUAAGGAUGAAUTT against 2810002D13Rik” is inactive: -0.123; for GCACGCACACUUAUGAUACTT against Meox2 it is inactive: -0.668.
The figure for CCGAAGCUCUGUUUUGAACTT against Hdac9 is inactive: -0.59; for “GGCCAUCAAGAAAGUCAAGTT against 2310043K02Rik” it is inactive: 0.306; for “GGAAGGUUUCGCUUUGAAUTT against 9930022N03Rik” it is inactive: 0.356.
As for CCUGAGAGUAUUCACCAGCTT against Fbp2, the z-score is inactive: 2.97.
Under CCGAUUCUUAGAAAUGUUCTT against Olfr692 stands inactive: 0.814.
The figure for GCCGGAUUCAUUGAAAGCATT against Eif2ak3 is inactive: -0.0757; for GGCUCAUUGGACAUAUAUGTT against Casp8ap2 it is inactive: -2.18.
Under GGUAUCAAAGCUGAAAUUGTT against Spnb2 stands inactive: 0.158; under “GCUGGAAGGAGGAACCAAGTT against 1810037I17Rik”, inactive: -2.52.
In the case of GGUGCUUUGACCUAUAUCUTT against LOC382137, the z-score was inactive: 0.684.
Under “GGAAGUAACAUGCUUCUAGTT against A530001H01Rik” stands inactive: 1.18; under GGAGUGCAAUUCCUUUCUATT against Ptger3, inactive: 1.3.
Under GGCCUGAUUACCUUGGAAATT against Papss1 stands inactive: -0.224; under GGCUGCUGAAGCAAAUAAGTT against Ankrd17, inactive: -2.59; under CCUGCUAAACCUGGACCAUTT against Hic1, inactive: 2.39.
For the sequence GGAACAGGAAGUUAAAUACTT against Neu4, the z-score was inactive: 0.28.
In the case of GGCUGGAUUAUUUUUUCUUTT against Usp4, the z-score is inactive: -0.877.
The figure for GGACUUAAACUUCAUGACATT against Csf2ra is inactive: 1.71; for “GCCUUUCUCGUUCCUAUAGTT against 5033414D02Rik” it is inactive: -1.33; for GCGAGUUUAAUGUUUAUGCTT against Pdgfra it is inactive: -0.506.
For the sequence GGAACUUAGAAGUUUACAATT against Caml, the z-score was inactive: 1.53.
Under GGACAGUGCCUGAUAACCATT against Chrm4 stands inactive: -0.629.
Regarding GGAUCCUUAAGCUUGGAGCTT against Ascl2, the z-score was inactive: 0.0295.
The figure for GGUCCUUAGAAUAAUUAAGTT against Mod1 is inactive: -0.105.
For the sequence GGAGAGGGUAGCUUUAAAUTT against Olfr801, the z-score is inactive: 0.351.
With GUAUUUCCACUUCAUUGUGTT against Tmem15, the z-score is inactive: -0.815.
Under “GCCAAUUGGUUCCCUGUAATT against 1700034E13Rik” stands inactive: 0.354; under GGCCAUGGCUACUAUUGUCTT against Tgoln1, inactive: -0.294; under GGGUGUGCAUUCUUCUAUUTT against Olfr1242, inactive: 2.94.
The figure for “GGUUUUCAAAUGUCUAUCATT against 1110049F12Rik” is inactive: 0.315; for “GGACUCAUCAGAGGAUAAATT against 4930565N07Rik” it is inactive: -1.25; for CGACAUCAAGGAUCGAAUATT against Pkn2 it is inactive: -0.411.
The figure for “GGAUUUGUACACACUUCAATT against 1810011O10Rik” is inactive: -0.989; for GGUAGUAGAAGCUGUUAACTT against Slc36a2 it is inactive: 0.187.
Take UAAAAUAUGCGAGCUCGCGTT against ADAM26b: the z-score is inactive: 1.91.
Under GGACAUAAGAAAAUGACCATT against Mbtd1 stands inactive: -1.08; under GGAAAUUGCCUUCUACGGGTT against Abcd1, inactive: -0.213; under GUGUAUCACAAGACUAUGCTT against Leap2, inactive: -0.581.
Under GGCUGAAAAGAAAAACAGATT against Rgs5 stands inactive: -0.484.
Under GGAAAUCCAUUGUUUAAAGTT against Wt1 stands inactive: 0.289; under CCUUCAUUCUCAUUGGCAUTT against Olfr591, inactive: -0.0543.
As for GCCUGGCCUUUCCAAUAUCTT against AU018829, the z-score is inactive: -1.16.
Under GCCUAAGGUCCAAACCAAGTT against Rpl29 stands inactive: -1.66.
Under “GGAAGUUGUAUAAGCCAGGTT against 9330151E16Rik” stands inactive: -0.695.
The figure for GGAAUUCAGCGAAGAGAAUTT against Rgs10 is inactive: -1.18; for GGGUAUAUUUUUGAUACCUTT against Ncor2 it is inactive: 0.155; for GGCACCUAGAAUGAGAUGCTT against Nhlh2 it is inactive: 0.533.
